The assay concerns the target human GIT2(ΔBCE)/Flag (human) (UniProt Q14161). In words: co-IP.

By UniProt entry, the sequences of proteins in these tests, tags left out. Where a name states a change or a piece, a line headed by the entry shows the natural chain unless it says otherwise.
UniProt Q14161: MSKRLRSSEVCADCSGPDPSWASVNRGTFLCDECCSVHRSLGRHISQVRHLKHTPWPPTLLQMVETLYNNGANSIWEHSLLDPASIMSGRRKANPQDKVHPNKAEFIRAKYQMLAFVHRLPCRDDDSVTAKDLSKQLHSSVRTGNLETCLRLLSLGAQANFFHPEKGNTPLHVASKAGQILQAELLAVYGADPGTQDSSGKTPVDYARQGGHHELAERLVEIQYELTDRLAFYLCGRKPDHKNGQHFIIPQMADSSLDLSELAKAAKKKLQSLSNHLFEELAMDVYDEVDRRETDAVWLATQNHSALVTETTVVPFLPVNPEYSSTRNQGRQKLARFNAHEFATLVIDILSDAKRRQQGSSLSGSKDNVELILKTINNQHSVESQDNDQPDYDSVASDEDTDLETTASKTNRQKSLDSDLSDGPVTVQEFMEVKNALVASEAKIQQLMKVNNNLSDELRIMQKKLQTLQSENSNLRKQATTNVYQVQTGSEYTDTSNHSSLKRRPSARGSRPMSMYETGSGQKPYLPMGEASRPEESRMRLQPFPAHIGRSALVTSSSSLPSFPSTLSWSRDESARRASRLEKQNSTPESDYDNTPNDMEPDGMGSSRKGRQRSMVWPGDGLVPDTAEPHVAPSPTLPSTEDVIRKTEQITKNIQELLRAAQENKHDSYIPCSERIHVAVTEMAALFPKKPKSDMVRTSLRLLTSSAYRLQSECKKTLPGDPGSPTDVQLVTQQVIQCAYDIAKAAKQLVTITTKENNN
UniProt Q9Y2X7: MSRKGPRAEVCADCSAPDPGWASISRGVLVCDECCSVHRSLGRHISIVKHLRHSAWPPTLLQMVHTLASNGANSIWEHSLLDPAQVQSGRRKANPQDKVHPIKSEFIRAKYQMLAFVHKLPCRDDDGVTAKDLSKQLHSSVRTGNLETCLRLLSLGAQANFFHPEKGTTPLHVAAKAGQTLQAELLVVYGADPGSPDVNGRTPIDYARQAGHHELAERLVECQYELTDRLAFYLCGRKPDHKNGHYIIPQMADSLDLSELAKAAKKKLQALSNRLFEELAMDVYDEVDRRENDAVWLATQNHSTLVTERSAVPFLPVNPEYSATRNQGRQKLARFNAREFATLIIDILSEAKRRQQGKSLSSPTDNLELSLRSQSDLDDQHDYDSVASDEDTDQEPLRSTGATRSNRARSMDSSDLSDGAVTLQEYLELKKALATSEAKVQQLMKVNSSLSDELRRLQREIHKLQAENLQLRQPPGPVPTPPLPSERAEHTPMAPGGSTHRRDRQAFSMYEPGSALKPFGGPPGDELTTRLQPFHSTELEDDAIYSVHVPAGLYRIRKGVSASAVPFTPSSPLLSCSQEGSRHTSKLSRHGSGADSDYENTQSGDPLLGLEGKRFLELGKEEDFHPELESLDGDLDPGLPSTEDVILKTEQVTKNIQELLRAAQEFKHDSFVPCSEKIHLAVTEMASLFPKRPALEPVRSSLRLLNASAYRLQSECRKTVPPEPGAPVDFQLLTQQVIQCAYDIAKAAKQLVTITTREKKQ
UniProt Q14155: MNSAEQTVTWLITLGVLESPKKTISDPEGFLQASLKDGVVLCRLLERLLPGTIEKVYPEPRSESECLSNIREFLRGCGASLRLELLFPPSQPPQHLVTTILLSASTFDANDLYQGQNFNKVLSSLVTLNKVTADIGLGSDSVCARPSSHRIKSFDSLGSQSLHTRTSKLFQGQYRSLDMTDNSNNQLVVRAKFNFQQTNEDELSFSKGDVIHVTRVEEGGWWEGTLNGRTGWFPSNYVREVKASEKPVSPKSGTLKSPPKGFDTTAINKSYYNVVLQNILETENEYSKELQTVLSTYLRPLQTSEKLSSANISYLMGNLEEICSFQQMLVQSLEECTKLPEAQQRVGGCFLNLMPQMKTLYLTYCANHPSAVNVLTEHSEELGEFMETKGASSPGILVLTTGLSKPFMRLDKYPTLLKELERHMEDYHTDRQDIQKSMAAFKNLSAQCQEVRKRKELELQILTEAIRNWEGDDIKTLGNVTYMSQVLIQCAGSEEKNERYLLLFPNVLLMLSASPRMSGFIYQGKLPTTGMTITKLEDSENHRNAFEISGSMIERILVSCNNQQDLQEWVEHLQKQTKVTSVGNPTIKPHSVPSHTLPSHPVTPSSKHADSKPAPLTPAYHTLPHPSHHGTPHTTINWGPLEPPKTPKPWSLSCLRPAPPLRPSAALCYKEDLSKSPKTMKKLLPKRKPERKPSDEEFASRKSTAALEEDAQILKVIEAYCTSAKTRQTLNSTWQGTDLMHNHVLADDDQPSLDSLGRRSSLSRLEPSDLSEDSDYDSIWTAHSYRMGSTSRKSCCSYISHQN

These are yes or no findings as the source states them, for the method shown. In cells and extracts the contact can be indirect. Binding calls can cover weak binding; strength is not graded here.

Regarding “GIT1, endogenous (from UniProt Q9Y2X7 1-761)”, the binding result is given as “no binding”.

Take “β-PIX, endogenous (from UniProt Q14155 1-803)”: the binding result is on record as “binds weakly”.

These data come from doi:10.1101/538223.
